Laboratory results taken from patent US20200171032A1, “METHODS AND MEDICAL USES” (THE INSTITUTE OF CANCER RESEARCH: ROYAL CANCER HOSPITAL, priority 2017, published 2020).
At least one structure is not confirmed: it was looked up by name or label, or the drawing left a doubt.

Tests used:
Type in all cases: cell-based
Settings in all cases: resistant line cultured in the absence of drug
[1] = tested on: MCF7 LTED^991R cells; assay: Proliferation assay in palbociclib-resistant MCF7 LTED
Procedure: (§1) Cell viability was determined using TiterGlo and data expressed as fold cell viability.
(§2) A panel of breast cancer cell lines (wt-MCF7, MCF7 LTED, wt-T47D and T47D LTED) with varying phenotypic backgrounds, were treated long-term in the presence of a CDK4/6 inhibitor (palbociclib, 1 μM). Resistance was authenticated by culturing the resistant cell lines with escalating concentrations of palbociclib in comparison with their wild-type progenitor (FIG. 13).
(§3) To address the validity of MPS1 as a common determinant of resistance to CDK4/6 inhibition, proliferation assays were performed using MPS1 inhibitors CCT289346 and NMS-P715 in the presence or absence of palbociclib in variety of breast cancer cell lines, including wild type (FIG. 15) and LTED cell lines (FIG. 16).

[2] = tested on: wt-MCF7^991R cells; assay: Proliferation assay in palbociclib-resistant wt-MCF7
Procedure: as §1, §2, §3

[3] = tested on: wt-T47D^991R cells; assay: Proliferation assay in palbociclib-resistant wt-T47D
Procedure: as §1, §2, §3

[4] = tested on: T47D-LTED^991R cells; assay: Proliferation assay in palbociclib-resistant T47D LTED
Procedure: as §1, §2, §3

`CC(=O)c1c(C)c2cnc(Nc3ccc(N4CCNCC4)cn3)nc2n(C2CCCC2)c1=O` [palbociclib, reference compound] was tested, and the “sensitivity to antiproliferative effect of palbociclib after washout” value (“sensitivity to antiproliferative effect” for short) [1] was “re-sensitised”, the “sensitivity to antiproliferative effect” value [2] was “re-sensitised” and the “sensitivity to antiproliferative effect” value [3] was “remained resistant”. The “sensitivity to antiproliferative effect” value [4] was “remained resistant”.
